Data from PMC3141008.
No constants are given. Whether binding was seen depends on the method and setting. Binding seen in cells or lysates may run through a third protein. Here binding means that the protein was enriched with, or labelled near, the bait; the list need not be complete.

Amino acid sequences for entries named in this document (tags omitted). A change or cut given only in a name is not applied to a line headed by its entry.
UniProt Q9LQ02: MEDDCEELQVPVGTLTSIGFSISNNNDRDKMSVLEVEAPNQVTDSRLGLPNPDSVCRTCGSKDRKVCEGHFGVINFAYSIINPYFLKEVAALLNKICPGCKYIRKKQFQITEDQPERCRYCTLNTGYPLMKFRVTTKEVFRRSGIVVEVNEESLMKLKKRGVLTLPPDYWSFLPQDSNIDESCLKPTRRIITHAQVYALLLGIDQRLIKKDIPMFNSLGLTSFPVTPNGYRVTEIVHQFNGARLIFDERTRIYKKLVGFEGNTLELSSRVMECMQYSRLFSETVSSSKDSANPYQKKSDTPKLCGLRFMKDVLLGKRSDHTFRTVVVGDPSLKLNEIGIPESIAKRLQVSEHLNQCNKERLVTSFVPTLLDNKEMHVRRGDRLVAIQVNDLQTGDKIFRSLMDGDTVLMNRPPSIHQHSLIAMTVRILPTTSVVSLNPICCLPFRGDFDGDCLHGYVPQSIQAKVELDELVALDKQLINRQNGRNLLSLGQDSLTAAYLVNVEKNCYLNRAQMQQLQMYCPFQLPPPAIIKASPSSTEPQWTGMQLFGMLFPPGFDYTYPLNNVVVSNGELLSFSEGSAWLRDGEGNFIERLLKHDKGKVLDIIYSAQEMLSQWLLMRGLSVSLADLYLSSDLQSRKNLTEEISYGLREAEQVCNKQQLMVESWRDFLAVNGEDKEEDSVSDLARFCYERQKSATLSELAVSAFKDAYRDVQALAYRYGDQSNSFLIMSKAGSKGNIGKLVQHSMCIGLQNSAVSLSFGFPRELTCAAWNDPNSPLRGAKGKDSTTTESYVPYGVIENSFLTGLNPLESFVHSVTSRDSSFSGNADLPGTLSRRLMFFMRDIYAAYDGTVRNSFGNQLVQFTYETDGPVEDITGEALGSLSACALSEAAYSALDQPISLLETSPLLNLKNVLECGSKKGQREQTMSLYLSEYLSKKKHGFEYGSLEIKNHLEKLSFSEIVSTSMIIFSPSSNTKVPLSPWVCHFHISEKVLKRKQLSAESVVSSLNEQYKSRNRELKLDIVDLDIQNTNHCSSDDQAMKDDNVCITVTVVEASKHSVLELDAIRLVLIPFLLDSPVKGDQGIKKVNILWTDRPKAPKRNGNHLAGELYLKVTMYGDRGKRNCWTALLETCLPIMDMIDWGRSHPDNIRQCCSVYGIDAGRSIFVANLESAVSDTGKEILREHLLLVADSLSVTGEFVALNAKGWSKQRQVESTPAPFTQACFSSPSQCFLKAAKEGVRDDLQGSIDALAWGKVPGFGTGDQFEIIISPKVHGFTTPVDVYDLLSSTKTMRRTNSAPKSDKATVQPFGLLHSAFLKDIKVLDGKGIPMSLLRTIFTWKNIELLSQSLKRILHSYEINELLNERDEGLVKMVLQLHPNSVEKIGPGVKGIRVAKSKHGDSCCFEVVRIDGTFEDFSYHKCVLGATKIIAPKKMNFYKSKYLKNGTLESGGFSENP
UniProt O81098: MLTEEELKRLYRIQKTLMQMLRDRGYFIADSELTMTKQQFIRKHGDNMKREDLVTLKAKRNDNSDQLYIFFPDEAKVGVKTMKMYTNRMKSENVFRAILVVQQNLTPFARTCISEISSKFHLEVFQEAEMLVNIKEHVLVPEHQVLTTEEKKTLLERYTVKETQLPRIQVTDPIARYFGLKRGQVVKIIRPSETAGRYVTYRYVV
UniProt Q9FJ98: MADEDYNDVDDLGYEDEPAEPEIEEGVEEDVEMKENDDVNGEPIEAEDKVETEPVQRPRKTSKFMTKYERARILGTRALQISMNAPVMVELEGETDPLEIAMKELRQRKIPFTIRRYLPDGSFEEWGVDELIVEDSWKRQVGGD
UniProt Q8LFJ6: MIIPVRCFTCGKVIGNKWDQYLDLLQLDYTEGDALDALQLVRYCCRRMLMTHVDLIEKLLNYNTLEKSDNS
UniProt Q9FLM8: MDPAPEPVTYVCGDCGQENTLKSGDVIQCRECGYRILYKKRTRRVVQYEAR

Each substance was assayed against NUCLEAR RNA POLYMERASE D1 (NRPD1), carboxy-terminal 3×Flag tagged (Arabidopsis thaliana) (UniProt Q9LQ02) (assay: affinity purification with mass spectrometry; ~10 g flower tissue of NRPD1-3×Flag and NRPD1-3×Flag-BLRP T4 plants (Col as negative control); lysis buffer 50 mM Tris pH7.6, 150 mM NaCl, 5 mM MgCl2, 10% glycerol, 0.1% NP-40; Dynabeads conjugated with a Flag antibody, 4°C 2.5 hours; eluted with 3×Flag peptide).

Substance | binding
NRPB5/D5 (from UniProt O81098) | binds
NRPB6A/D6A/E6A (from UniProt Q9FJ98 1-144) | binds
NRPB10/D10/E10 (from UniProt Q8LFJ6 1-71) | binds
NRPB12/D12/E12 (from UniProt Q9FLM8 1-51) | binds
RNA-… RNA POLYMERASE 2 (RDR2), endogenous (from UniProt O82504 1-1133) | binds
